# Library screening results

Sequences of proteins named here, by UniProt entry; tags and fusion partners are left off.
UniProt E9BF75, entry or part of it: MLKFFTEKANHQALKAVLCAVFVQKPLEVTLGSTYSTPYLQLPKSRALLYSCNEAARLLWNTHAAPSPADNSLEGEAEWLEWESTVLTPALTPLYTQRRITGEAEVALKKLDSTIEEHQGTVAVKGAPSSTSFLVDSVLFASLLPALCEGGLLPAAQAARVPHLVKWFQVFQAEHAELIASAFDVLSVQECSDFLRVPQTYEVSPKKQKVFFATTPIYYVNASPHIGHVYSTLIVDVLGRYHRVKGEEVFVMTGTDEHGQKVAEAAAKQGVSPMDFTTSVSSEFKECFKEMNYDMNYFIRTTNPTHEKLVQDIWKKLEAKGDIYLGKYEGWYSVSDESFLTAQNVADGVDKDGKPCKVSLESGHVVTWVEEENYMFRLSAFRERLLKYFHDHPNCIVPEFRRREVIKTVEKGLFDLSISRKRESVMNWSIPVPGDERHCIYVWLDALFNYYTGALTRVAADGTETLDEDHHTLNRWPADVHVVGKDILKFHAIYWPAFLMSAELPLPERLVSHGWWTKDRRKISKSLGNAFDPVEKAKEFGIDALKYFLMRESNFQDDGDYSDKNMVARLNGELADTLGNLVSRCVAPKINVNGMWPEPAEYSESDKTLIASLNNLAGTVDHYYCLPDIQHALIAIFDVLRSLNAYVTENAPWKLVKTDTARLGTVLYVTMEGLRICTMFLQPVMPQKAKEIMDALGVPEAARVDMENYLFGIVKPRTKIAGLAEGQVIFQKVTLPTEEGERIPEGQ

Data taken from ChEMBL document CHEMBL3988442, “University of Dundee, Small-Polar-MMV Screening Library” (2021).

A: 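Assay on Mycobacterium tuberculosis, filed only as a heat shock assay from Cornell; the read-out is not stated. The concentration is filed as 10 mM, unlikely as a test dose, so the dose is not known. The record gives no direction; compounds that gave an IC50 in retests scored well above the rest, so higher reads as stronger inhibition. Of about 69,000 compounds tested this way, about 930 (1.4%) reached 50% or more in at least one test.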
B: 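Methionyl-tRNA synthetase (putative), Leishmania donovani (UniProt E9BF75). Primary screen of methionyl-tRNA synthetase; the read-out is not stated. The test concentration is not given. The values are filed as inhibition. Size under these conditions: about 68,000 compounds, about 24 of them at 50% or above in at least one test.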
C: 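Whole-cell assay for inhibitors of Mycobacterium tuberculosis growth, labelled Cornell in the record; the read-out is not stated. The concentration is filed as 10 mM, unlikely as a test dose, so the dose is not known. Higher means stronger inhibition (inferred from two other growth screens of the library). Size under these conditions: about 53,000 compounds, about 900 of them at 50% or above in at least one test.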

All values are in %. The controls that fix the scale are not given in the record; negative values are as filed. The compounds are a random part of those screened.

{"structure": "COc1cccc(OCC(=O)N2CCOc3ccncc32)c1", "A": -23.46, "B": 1.805, "C": -4.09}
{"structure": "CN(C)CCn1c2c(ccc1=O)CC(NCc1cccnc1)CC2.O=C(O)C(F)(F)F.O=C(O)C(F)(F)F.O=C(O)C(F)(F)F", "stereo": "stereo not given", "A": -1.687, "C": 21.04}
{"structure": "NC(=O)CCn1nnc(-c2cc3ccccc3o2)n1", "A": -17.3, "B": 14.84, "C": -43.82}
{"structure": "O=C(COc1ccc2c(c1)OCC2O)NCc1ccco1", "stereo": "stereo not given", "A": 10.06, "B": 3.867}
{"structure": "Cc1nn(C)c(C)c1-c1nccnc1CC1CCNCC1", "A": 4.169, "B": 13.52, "C": 22.49}
{"structure": "Cc1ccc(CN2CCC3(CC2)NC(=O)CC3c2ccccc2)s1", "stereo": "stereo not given", "B": 7.372}
{"structure": "Cc1cc(C)c2c(OCC(=O)N(C)CC(=O)NC(C)C)nn(C)c2n1", "A": 10.37, "B": 10.66}
{"structure": "Cc1nc(CN(C)C2CCN(Cc3ccc4c(c3)CCC4)C2)no1", "stereo": "stereo not given", "A": 1.816, "B": 21.55}
{"structure": "Cc1ccc(OCCN(C)Cc2nccn2C)c(C)c1", "A": 55.39, "B": 16.33, "C": 32.44}
{"structure": "CCn1ncc(C(=O)NCCc2nc(-c3ccc(C)cc3)n[nH]2)c1C", "A": -12.78, "B": 17.02, "C": 20.17}
{"structure": "O=C(O)C(F)(F)F.O=C(O)C(F)(F)F.[H][C@@]12CN(Cc3ccoc3)CCC[C@]1(C(=O)O)CN(CCOC)C2", "A": -19.72, "C": 10.67}
{"structure": "CNC(=O)c1cc2c(nc1NCC1CC1)CCN(c1ccncn1)CC2.O=C(O)C(F)(F)F", "A": -7.299}
{"structure": "CCOCCCC(=O)NCc1cn2cc(Br)ccc2n1", "A": 8.376, "B": 19.72, "C": -53.82}
{"structure": "[H][C@@]12COC[C@]1(CNS(C)(=O)=O)CN(C(=O)c1cccn1C)C2", "A": 10.4, "C": -11.79}
{"structure": "Nc1nccc(N2CCC(Cc3ccccc3Cl)(C(=O)O)CC2)n1", "A": -6.27, "B": 17.03}
{"structure": "CCc1ncnc2c1CCN(Cc1ccc3c(c1)OCO3)CC2.O=C(O)C(F)(F)F", "A": -11.62, "C": 26.28}
{"structure": "Cc1nn(C)c2ncnc(NCC(O)CN3CCCCC3)c12", "stereo": "stereo not given", "A": 2.961, "B": 1.493, "C": -31.84}
{"structure": "O=C(C1CC(c2cccc(F)c2)=NO1)N1CCc2ccccc21", "stereo": "stereo not given", "A": -7.572, "B": -0.2801}
{"structure": "Cc1ncnc2c1CCN(CC1CCOC1)CC2", "stereo": "stereo not given", "B": 12.09}
{"structure": "Cc1ccc(CN2CC[C@H](O)[C@@H](n3ccc(=O)[nH]c3=O)CC2)cc1", "A": -5.104, "B": 9.061, "C": -10.65}
{"structure": "NCCc1c(-c2ccccc2)[nH][nH]c1=O", "B": 8}
{"structure": "COc1ccccc1OC1CCN(Cc2ccc(N(C)C)nc2)CC1", "A": 10.97, "B": 15.6, "C": 22.28}
{"structure": "CCOCCC(=O)Nc1cc(C)cnc1OC", "A": -24.09, "B": 12.93, "C": -5.144}
{"structure": "Cc1cc(C)n(CCCN(C)c2cc(C3CC3)ncn2)n1", "A": -3.405, "B": 9.756, "C": 5.852}
{"structure": "Cc1nn(C)c(N(C)C)c1CNCc1ccnc(N2CCCC2)c1", "A": 3.212, "B": 25.5, "C": 6.339}
{"structure": "CS(=O)(=O)N1CCOCC2(CN(Cc3nccs3)CCO2)C1", "stereo": "stereo not given", "B": 9.929}
{"structure": "Cc1cc(C)n(CCN2CCOC(CNc3cccnn3)C2)n1", "stereo": "stereo not given", "A": 5.462, "B": 24.43}
{"structure": "CNC(=O)C1CCC2(CCNCC2)C1.O=C(O)C(F)(F)F", "stereo": "stereo not given", "A": 7.46}
{"structure": "CC(C)CN1CCn2c(nc3cc(C(=O)NC(C)C)ccc32)C1", "A": -15.27, "B": 13.14}

4 of the entries, repeated:

* CCn1ncc(C(=O)NCCc2nc(-c3ccc(C)cc3)n[nH]2)c1C : A: -12.78%; B: 17.02%; C: 20.17%
* CC(C)CN1CCn2c(nc3cc(C(=O)NC(C)C)ccc32)C1 : A: -15.27%; B: 13.14%
* Cc1cc(C)c2c(OCC(=O)N(C)CC(=O)NC(C)C)nn(C)c2n1 : A: 10.37%; B: 10.66%
* O=C(C1CC(c2cccc(F)c2)=NO1)N1CCc2ccccc21 (stereo not given) : A: -7.572%; B: -0.2801%